No constants are given. Whether binding was seen depends on the method and setting. Some entries that bind do so weakly or less than the wild type.
Tests used:
murine PAPP-A (mouse) [1] = target: murine PAPP-A (mouse) (UniProt Q8R4K8); experiment: Western blot
[2] = target: human PAPP-A2 (pappalysin-2) (human) (UniProt Q9BXP8); experiment: PAPP-A2 Western blot of medium from cotransfected HEK293T cells
murine PAPP-A (mouse) [3] = target: murine PAPP-A (mouse) (UniProt Q8R4K8); experiment: immunoprecipitation with mAb STC221 from MEF medium; PAPP-A Western blot
murine PAPP-A (mouse) [4] = target: murine PAPP-A (mouse) (UniProt Q8R4K8); experiment: immunoprecipitation with mAb STC221 from MEF medium; Western blot with mAb D8-mIgG2a

The chains behind the UniProt entries cited, without tags or fusion partners. Where a name states a change or a piece, a line headed by the entry shows the natural chain unless it says otherwise. Residues count along the entry.
UniProt Q8R4K8, residues 82-1624: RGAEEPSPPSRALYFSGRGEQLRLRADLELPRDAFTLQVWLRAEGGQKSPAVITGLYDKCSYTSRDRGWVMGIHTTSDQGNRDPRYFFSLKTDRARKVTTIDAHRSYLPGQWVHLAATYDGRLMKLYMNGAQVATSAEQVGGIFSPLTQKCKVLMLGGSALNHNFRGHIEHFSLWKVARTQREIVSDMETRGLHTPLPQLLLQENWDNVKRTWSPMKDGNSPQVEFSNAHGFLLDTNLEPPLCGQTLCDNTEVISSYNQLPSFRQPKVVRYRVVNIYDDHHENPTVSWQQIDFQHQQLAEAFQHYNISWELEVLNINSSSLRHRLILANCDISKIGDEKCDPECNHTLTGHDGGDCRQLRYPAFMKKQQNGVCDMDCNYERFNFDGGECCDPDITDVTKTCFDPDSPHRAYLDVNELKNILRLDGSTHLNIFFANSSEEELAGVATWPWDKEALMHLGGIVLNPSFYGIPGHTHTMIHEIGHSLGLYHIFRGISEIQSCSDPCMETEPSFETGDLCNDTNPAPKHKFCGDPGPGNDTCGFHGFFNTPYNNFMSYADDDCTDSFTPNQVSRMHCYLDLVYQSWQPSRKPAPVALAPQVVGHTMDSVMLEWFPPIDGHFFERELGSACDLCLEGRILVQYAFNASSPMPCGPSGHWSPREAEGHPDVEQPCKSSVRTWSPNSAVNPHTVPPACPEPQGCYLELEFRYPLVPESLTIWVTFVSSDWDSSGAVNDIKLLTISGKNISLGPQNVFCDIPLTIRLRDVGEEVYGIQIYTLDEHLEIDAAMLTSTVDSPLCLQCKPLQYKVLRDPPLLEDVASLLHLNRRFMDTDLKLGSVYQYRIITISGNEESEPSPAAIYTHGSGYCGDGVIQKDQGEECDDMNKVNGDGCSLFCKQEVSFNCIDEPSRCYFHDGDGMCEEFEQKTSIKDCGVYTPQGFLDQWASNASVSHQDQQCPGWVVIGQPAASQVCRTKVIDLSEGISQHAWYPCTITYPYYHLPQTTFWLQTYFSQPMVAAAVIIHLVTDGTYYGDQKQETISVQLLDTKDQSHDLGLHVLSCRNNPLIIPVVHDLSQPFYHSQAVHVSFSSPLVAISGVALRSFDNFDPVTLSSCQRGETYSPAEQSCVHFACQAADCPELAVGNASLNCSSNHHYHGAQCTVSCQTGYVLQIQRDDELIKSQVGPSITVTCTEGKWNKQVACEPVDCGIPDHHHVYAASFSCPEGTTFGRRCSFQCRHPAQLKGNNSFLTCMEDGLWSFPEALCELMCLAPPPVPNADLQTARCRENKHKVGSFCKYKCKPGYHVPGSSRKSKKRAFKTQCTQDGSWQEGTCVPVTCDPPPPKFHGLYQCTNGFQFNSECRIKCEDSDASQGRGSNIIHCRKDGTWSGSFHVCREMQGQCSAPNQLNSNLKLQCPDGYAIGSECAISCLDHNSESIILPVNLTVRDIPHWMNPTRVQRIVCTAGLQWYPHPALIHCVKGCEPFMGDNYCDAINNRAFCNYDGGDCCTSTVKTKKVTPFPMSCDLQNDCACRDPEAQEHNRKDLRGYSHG
UniProt Q9BXP8: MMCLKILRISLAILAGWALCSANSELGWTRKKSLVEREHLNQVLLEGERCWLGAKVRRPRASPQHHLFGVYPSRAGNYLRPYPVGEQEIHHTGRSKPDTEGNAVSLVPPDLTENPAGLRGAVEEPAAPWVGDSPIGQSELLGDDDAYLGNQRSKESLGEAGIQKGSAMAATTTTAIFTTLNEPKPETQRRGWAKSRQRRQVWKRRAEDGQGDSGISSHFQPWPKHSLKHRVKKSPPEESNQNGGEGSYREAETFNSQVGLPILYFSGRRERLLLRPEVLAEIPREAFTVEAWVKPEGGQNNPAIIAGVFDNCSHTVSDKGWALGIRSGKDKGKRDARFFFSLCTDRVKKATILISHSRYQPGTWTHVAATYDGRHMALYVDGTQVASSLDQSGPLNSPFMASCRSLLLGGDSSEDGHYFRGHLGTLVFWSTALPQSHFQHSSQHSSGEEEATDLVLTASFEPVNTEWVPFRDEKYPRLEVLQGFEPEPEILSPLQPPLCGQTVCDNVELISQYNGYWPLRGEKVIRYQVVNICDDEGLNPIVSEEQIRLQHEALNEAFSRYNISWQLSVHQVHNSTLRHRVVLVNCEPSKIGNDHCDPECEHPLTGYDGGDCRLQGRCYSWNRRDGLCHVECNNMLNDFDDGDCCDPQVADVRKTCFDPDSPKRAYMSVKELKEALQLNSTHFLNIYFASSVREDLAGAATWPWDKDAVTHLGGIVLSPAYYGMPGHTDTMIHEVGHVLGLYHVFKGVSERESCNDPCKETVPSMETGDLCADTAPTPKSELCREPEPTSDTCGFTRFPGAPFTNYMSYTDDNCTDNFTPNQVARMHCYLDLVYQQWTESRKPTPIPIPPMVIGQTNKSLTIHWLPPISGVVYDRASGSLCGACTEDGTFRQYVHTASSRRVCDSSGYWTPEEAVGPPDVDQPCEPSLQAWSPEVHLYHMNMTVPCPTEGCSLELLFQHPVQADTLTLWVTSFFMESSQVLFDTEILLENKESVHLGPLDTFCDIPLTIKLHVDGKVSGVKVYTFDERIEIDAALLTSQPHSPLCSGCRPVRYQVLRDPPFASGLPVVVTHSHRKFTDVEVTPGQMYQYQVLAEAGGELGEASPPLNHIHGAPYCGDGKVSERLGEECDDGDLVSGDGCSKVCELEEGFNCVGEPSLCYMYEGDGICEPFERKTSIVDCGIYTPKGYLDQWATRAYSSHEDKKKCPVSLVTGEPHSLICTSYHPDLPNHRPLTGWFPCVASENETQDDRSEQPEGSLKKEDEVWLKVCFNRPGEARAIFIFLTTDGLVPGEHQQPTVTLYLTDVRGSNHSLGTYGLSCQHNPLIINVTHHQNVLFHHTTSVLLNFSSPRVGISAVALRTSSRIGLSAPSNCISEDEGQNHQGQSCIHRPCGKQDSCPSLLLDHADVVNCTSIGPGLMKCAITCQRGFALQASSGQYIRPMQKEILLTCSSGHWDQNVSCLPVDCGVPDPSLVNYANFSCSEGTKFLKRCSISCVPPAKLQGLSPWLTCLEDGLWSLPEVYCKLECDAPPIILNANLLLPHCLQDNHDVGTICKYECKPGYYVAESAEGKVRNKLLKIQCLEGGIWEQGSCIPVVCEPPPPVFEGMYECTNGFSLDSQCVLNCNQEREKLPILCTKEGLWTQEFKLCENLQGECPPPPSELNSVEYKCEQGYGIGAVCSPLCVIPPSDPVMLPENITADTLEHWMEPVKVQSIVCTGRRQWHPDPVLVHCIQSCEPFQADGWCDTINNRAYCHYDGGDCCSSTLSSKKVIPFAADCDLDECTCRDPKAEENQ

binding (murine PAPP-A (mouse) [1]) | binding [2] | binding (murine PAPP-A (mouse) [3]) | binding (murine PAPP-A (mouse) [4]) | Substance
binds | binds | – | – | recombinant human stanniocalcin 2, C-terminally myc-his-tagged (from UniProt O76061 25-302)
– | – | binds | binds | untagged human STC2 (transgene-derived STC2 of transgenic mice; endogenous STC2 of 293T cells) (from UniProt O76061 25-302)
